Values from PubChem BioAssay AID743458 (Peter MacCallum Cancer Centre, 2014).

Aim: 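Find knock-downs that make vorinostat-resistant colon cancer cells sensitive again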 (follow-up of hits)
Cell system: human HCT116-VR colon cancer cells made resistant to vorinostat
Reagents: single siRNA or pool against human genes, 25 nM per single siRNA
Duration: about 72 h after transfection, including 24 h of drug
Conditions: vorinostat, 2.5 µM final, for 24 h
Measured: 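Cell viability by fluorescence and apoptosis by caspase 3/7 luminescence under vorinostat, background-corrected, averaged across two plate copies and given as fold change versus mock transfection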
Scale: viability relative to mock: higher = more living cells than mock; caspase activity relative to mock: higher = more apoptosis than mock
Rule for the call: 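Active means a reduced-viability or caspase-activation class, anything else inactive; classes could only be given to wells that looked healthy when left untreated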
In all, the deposit lists about 1,800 reagents; shown is a random part of them. 732 of them (41%) were called active. 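Calls are per siRNA reagent; a gene was deemed confirmed only if most of its four siRNAs scored.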 Entries without a mark were called inactive. Reagents against one gene are numbered here.

| Gene | reagent no. | viability relative to mock | caspase activity relative to mock | viability hit class | caspase hit class |
| --- | --- | --- | --- | --- | --- |
| KCNK6 (GeneID 9424) | 1 | 0.98 | 1.77 | no change | no change |
| KCNK6 (GeneID 9424) | 2 | 0.92 | 0.97 | no change | no change |
| KCNK6 (GeneID 9424) | 3 | 0.86 | 2.42 | no change | no change |
| KCNK6 (GeneID 9424) | 4 | 0.8 (active) | 3.64 | no change | caspase activation |
| RBBP8 (GeneID 5932) | 1 | 0.86 (active) | 3.66 | no change | caspase activation |
| RBBP8 (GeneID 5932) | 2 | 0.7 | 2.52 | no change | no change |
| RBBP8 (GeneID 5932) | 3 | 0.7 (active) | 3.78 | no change | caspase activation |
| RBBP8 (GeneID 5932) | 4 | 0.76 | 1.59 | no change | no change |
| MIDEAS (GeneID 91748) | 1 | 0.85 (active) | 4.81 | no change | caspase activation |
| MIDEAS (GeneID 91748) | 2 | 0.9 | 1.29 | no change | no change |
| MIDEAS (GeneID 91748) | 3 | 0.82 | 1.66 | no change | no change |
| MIDEAS (GeneID 91748) | 4 | 0.38 (active) | 4.62 | reduced viability | caspase activation |
| NUP54 (GeneID 53371) | 1 | 0.29 (active) | 4.88 | reduced viability | caspase activation |
| NUP54 (GeneID 53371) | 2 | 0.64 (active) | 5.43 | no change | caspase activation |
| NUP54 (GeneID 53371) | 3 | 0.72 | 1.88 | no change | no change |
| NUP54 (GeneID 53371) | 4 | 0.73 (active) | 4.31 | no change | caspase activation |
| ADTRP (GeneID 84830) | 1 | 0.63 (active) | 5.37 | no change | caspase activation |
| ADTRP (GeneID 84830) | 2 | 0.94 | 1.47 | no change | no change |
| ADTRP (GeneID 84830) | 3 | 0.59 (active) | 3.55 | no change | caspase activation |
| ADTRP (GeneID 84830) | 4 | 0.96 | 1.19 | no change | no change |
| TGM5 (GeneID 9333) | 1 | 0.39 (active) | 2.94 | reduced viability | caspase activation |
| TGM5 (GeneID 9333) | 2 | 0.84 | 1.05 | no change | no change |
| TGM5 (GeneID 9333) | 3 | 0.79 | 2.57 | no change | no change |
| TGM5 (GeneID 9333) | 4 | 0.84 (active) | 3.35 | no change | caspase activation |
